At least one structure is not confirmed: it was looked up by name or label, or the drawing left a doubt.
Experiments:
rip-1 = rip-1 cytoplasmic to nuclear translocation (cellular fractionation, vpr-ligand blot); format: cell-based; settings: exposure of cells to agent; steroids at 10^−6M
Method: 3×10^6 cells were washed twice in PBS, and lysed in 200 μl of lysis buffer (150 mM NaCl, 50 mM Tris, pH 8.0, 0.5% Triton X-100, plus protease inhibitors: aprotinin, leupeptin, pepstatin A, each at 2 μg/ml; PMSF, 1 mM, and EDTA, 1 mM). Cell suspension was incubated on ice for 10 minutes with frequent vortexing, and centrifuged at 12000 g for 6 minutes. The soluble, as well as the insoluble fractions were run on 12% SDS-PAGE, and transferred to PVDF membranes (Millipore), as described. Membranes were blocked with 5% non fat dry milk, in TBS supplemented with 0.05% Tween-20. Blocked membranes were incubated with either purified vpr protein (approximately 50 ng/ml) or an irrelevant protein. These membranes were then incubated with 808 rabbit anti vpr antiserum Levy, et al. 1994b, supra, followed by I^125 protein G (NEN), and exposed to film for at least 12 hours at −80° C.

HIV-1 NL43 Δvpr = assay: Complementation in trans of HIV-1 NL43 Δvpr in nonproductively infected U937 cells (virus production); format: cell-based; settings: agent added to tissue culture medium of nonproductively infected U937 cells
Method: The following cell lines were obtained from the American Type Culture Collection; TE671 human embryonal rhabdomyosarcoma (ATCC HTB139), A673 embryonal rhabdomyosarcoma (ATCC CRL 1598), D17 canine osteosarcoma (ATCC CCL183), HOS human osteosarcoma (ATCC CRL 1543), U373 human glioblastoma (ATCC HTB17), SK-N-MC neuroblastoma (ATCC HTB10). Two additional glioblastoma lines were kindly provided by the Medical Research Council (MRC), England, (HT17 and HT16). U87MG (HTB14) is a glial cell line obtained from the University of Pennsylvania Cell Center. RD rhabdomyosarcoma cells were provided by Dr. A. Srinivasan. The T lymphocytic cells H9 and SupT-I were obtained from the University of Pennsylvania Cell Center, and KG-1 was obtained from Dr. G. Trinchieri. The murine NIH 3T3 line was obtained from ATCC. BSC-1, CV-1 and COS cell lines were obtained Dr. B. Moss. Primary PBL as well as primary monocytes/macrophages were isolated as in Levy, et al. 1994b, supra. […]
Such nonproductively infected cells can be rescued for p24 production by addition of exogenous vpr protein (Levy, et al., 1994a, supra; Levy, et al., 1994b, supra). […] When the nonproductively infected U937 cells described above were exposed to vpr protein, rip-1 translocated 12 hours later, and virus was first detected in the media 36 hours after the initial exposure to vpr. […]

HIV LTR = assay: LTR-CAT assay in RD cells transfected with pBennCAT; format: cell-based; settings: panel of deletion mutant HIV-1 LTR-CAT constructs
Method: Induction of the HIV-LTR was measured as a function of a reporter gene (CAT) function. pBennCAT, an LTR-CAT encoding construct, obtained from M. Martin, through the NIH ARRRP was used. The levels of CAT protein were measured using a CAT ELISA capture assay (Boehringer Mannheim), following manufacturer's specifications. The levels of CAT activity were measured by a chloramphenicol acetyltransferase assay, according to published procedures (Gorman, et al., 1982, The Rous sarcoma virus long terminal repeat is a strong promoter when introduced into a variety of eukaryotic cells by DNA mediated transfection. Proc. Natl. Acad. Sci. USA. 79, 6777-6781). Briefly, RD cells were transfected with pBennCAT (Gendelman, 1986, Trans-activation of the Human immunodeficiency virus long terminal repeat sequence by DNA viruses. Proc. Natl. Acad. Sci. USA. 83, 9759-9763), using DOTAP. Cells were washed 12 hours later and new medium, containing the test reagents was added to the cell monolayers. 48 hours later, cells were washed three times with Ca+2/Mg+2 free PBS. Cells were then scraped off the plate, and collected with 1 ml PBS. […]
The possibility that activation of the GR pathway could play a central role in the viral transcription process was considered. […] Vpr protein was detected in the tissue culture media of these cells, as assessed by capture ELISA.

GRE sequences of HIV-1/2 = assay: Gel shift assay with stimulated U937 cell lysates; format: biochemical; settings: agent added to U937 cell lysates; labelled HIV-1/2 GRE probe

What does the source list for `C[C@@H]1C[C@H]2[C@@H]3CCC4=CC(=O)C=C[C@]4(C)[C@@]3(F)[C@@H](O)C[C@]2(C)[C@@]1(O)C(=O)CO` [Dexamethasone]?
nuclear translocation of rip-1 (rip-1): induced the nuclear translocation of rip-1; complementation in trans of HIV-1 NL43 Δvpr virus (HIV-1 NL43 Δvpr): complemented in trans; induction of CAT activity from deletion mutant LTR-CAT constructs (HIV LTR): able to induce CAT activity as long as the region between −250 to −264 were present; induction of GRE DNA-binding complex (GRE sequences of HIV-1/2): complex induced by Dexamethasone stimulation

From patent US6667157B1, “Compositions and methods for the abrogation of cellular proliferation utilizing the human immunodeficiency virus VPR protein” (priority 1994, dated 2003)
